Experimental data reported in paper PMC2688274.
Results are given in words; binding and its absence hold for the method and conditions named. For some of these results: In cells and extracts the contact can be indirect. Some results given as binding are weak or reduced against the parent protein; the word gives no strength. For some of these results: Sequences can lack the tags named with a protein. Blank lines part the entries; values can stand above or below the binder they belong to.

Assays:
[1] = target: T1, SEP3-CFP / SEP3-YFP (Arabidopsis thaliana), O22456; test: FRET or BRET; FRET-FLIM in Arabidopsis leaf protoplasts; carboxy-terminal CFP (donor) and YFP (acceptor) fusions; donor lifetime measured on the central part of the nucleus, at least ten cells a combination in three experiments; settings: remark: other sources report otherwise
T1 chain: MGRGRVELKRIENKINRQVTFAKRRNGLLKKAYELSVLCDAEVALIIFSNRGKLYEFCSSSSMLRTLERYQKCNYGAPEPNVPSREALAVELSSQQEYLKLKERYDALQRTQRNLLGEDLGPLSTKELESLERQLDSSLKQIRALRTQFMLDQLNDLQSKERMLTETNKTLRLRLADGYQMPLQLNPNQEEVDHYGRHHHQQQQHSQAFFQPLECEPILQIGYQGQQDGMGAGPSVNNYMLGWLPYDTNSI

[2] = target: PI-CFP / PI-YFP (Arabidopsis thaliana) (UniProt P48007); test: as above
[3] = target: T2, AP3-CFP / AP3-YFP (Arabidopsis thaliana), P35632; test: as above; settings: remark: other sources report otherwise
T2 chain: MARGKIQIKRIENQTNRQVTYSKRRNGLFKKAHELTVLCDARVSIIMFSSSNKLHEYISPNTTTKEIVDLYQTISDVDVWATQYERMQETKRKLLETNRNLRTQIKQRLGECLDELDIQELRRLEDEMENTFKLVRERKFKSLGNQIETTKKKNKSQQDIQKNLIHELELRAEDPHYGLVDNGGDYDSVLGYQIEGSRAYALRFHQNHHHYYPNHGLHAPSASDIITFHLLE

[4] = target: T2, AP3-CFP / AP3-YFP (Arabidopsis …); test: FRET or BRET; FRET-FLIM in Arabidopsis leaf protoplasts between PI-CFP and AP3-YFP in the presence of a non-labeled SEP3 protein; settings: remark: other sources report otherwise
[5] = target: AP3-CFP / AP3-YFP (Arabidopsis thaliana) (UniProt P35632); test: FRET or BRET; FRET-FLIM in Arabidopsis leaf protoplasts; carboxy-terminal CFP (donor) and YFP (acceptor) fusions; donor lifetime measured on the central part of the nucleus, at least ten cells a combination in three experiments
[6] = substrate: PI with SEP3ΔC2 (in the yeast three-hybrid screen with the SEP3ΔC2 collection) (Arabidopsis thaliana) (UniProt P48007+O22456); test: yeast three-hybrid; yeast PJ69-4; dimer clones (one partner fused to GAL4-AD, the other to a nuclear localization signal only, pARC352) mated with single proteins fused to GAL4-BD; growth on -L -W -A -H with 1, 5 or 10 mM 3-AT at 20°C for 7 days, and LacZ assay
[7] = target: SEP1-SEP2 dimer (Arabidopsis thaliana) (UniProt P29382+P29384); test: as above

B3: PI-CFP / PI-YFP, P48007 1-208 (protein)
chain: MGRGKIEIKRIENANNRVVTFSKRRNGLVKKAKEITVLCDAKVALIIFASNGKMIDYCCPSMDLGAMLDQYQKLSGKKLWDAKHENLSNEIDRIKKENDSLQLELRHLKGEDIQSLNLKNLMAVEHAIEHGLDKVRDHQMEILISKRRNEKMMAEEQRQLTFQLQQQEMAIASNARGMMMRDHDGQFGYRVQPIQPNLQEKIMSLVID
- binding [3]: binds
- binding [4]: binds

B4: AP3-CFP / AP3-YFP (protein, UniProt P35632 1-232)
chain: T2 chain
- binding [5]: binds weakly

B5: APETALA3 (AP3), full length, in yeast (protein, UniProt P35632 1-232)
chain: T2 chain
- binding [6]: binds

The next lines start with the values.

- binding [1]: binds
B1: SEP3-CFP / SEP3-YFP, O22456 1-251 (protein)
chain: T1 chain

- binding [2]: binds weakly
B2: PI-CFP / PI-YFP (protein, UniProt P48007 1-208)
chain: B3 chain

- binding [7]: binds
B6: ARABIDOPSIS BSISTER, long splice form (ABS-I) (protein, UniProt Q8RYD9 1-252)
chain: MGRGKIEIKKIENQTARQVTFSKRRTGLIKKTRELSILCDAHIGLIVFSATGKLSEFCSEQNRMPQLIDRYLHTNGLRLPDHHDDQEQLHHEMELLRRETCNLELRLRPFHGHDLASIPPNELDGLERQLEHSVLKVRERKNELMQQQLENLSRKRRMLEEDNNNMYRWLHEHRAAMEFQQAGIDTKPGEYQQFIEQLQCYKPGEYQQFLEQQQQQPNSVLQLATLPSEIDPTYNLQLAQPNLQNDPTAQND
